This is an account of results in article doi:10.1101/2020.07.30.228585.

These are yes or no findings as the source states them, for the method shown. A result given as binding can be weak or reduced; the word gives no strength.

This assay has as its target S. pombe Y-complex (also called Nup107 complex) (S. pombe (endogenous in S. pombe cells)). Put plainly: cryo-EM structure.

B1: Ely5 (protein, UniProt O94384 1-298)
chain: MLKMEDDQFERFVGLFSMKDEDFPYNSQVTNEIQTFRKQQVDSQLFFDVLLSFIEGIEDPSSLYPPKSIDDLQSLFMIIENSNIDELKQQCFYYYLLKDWEKSETYSEQVSLPKNYQHLMDGYYYLDRLKFEEAINHLLLPDVLPNFPDKIIETLYSNEKYKFLIRFVSFVGPPLDTFRKEECYALSLVRYSFLASYHYMKKCTKPLVLWEEMIQLILESNDTQSCKLIVSLPLSQEECEVLFSLLRSKKEPLYLNTLLALLVESNNIQEALELSSNSTHLQKSAVNTYLHKLNSLSS
With B1, the binding result is “binds”.
